According to PubChem BioAssay AID2685 (National Center for Advancing Translational Sciences (NCATS), 2010):
The other results are listed elsewhere or left out. Further columns of the screen follow, without active or inactive calls. Compounds called inactive in the main read-out are mostly missing here. The note in brackets gives the kind of curve behind each potency; many fits are weak.

Experiment: qHTS Assay for Lipid Storage Modulators in Drosophila S3 Cells;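 as to cell number change: cells counted by Cell Tracker Red CMTPX staining in the red channel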
Conditions: BODIPY lipid droplet fluorescence, 18-24 h; for cell number change: measured here: cell count max response, cells fed with added oleic acid
Procedure, shortened: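 Drosophila S3 cells got compounds at several concentrations plus oleic acid (400 uM solution). Laser-scanning cytometry with 488 nm excitation read lipid droplets at 500-530 nm and cells at 575-640 nm. Percent activity was relative to 20 uM Triacsin C.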

[1] = measured here: cell number channel AC50, cells fed with added oleic acid
[2] = measured here: lipid fluorescence (Fed channel) AC50, cells fed with added oleic acid

N#C/C(=C\c1cccc(Cl)c1)c1n[nH]c(Cn2cncn2)n1
cell number change: 39.6% | AC50 [1]: 14.6 µM [rising, partial curve] | AC50 [2]: 6.51 µM [falling, partial curve, poor fit]

Oc1ccccc1N1CCN(c2nnnn2-c2ccccc2)CC1
cell number change: 14.6% | AC50 [2]: 0.517 µM [rising, partial curve, poor fit]

Cc1ccc(C(=O)C2=C(O)C(=O)N(CCCN3CCOCC3)C23C(=O)N(C)c2ccccc23)o1 (stereo not given)
cell number change: -18.6% | AC50 [2]: 23.1 µM [falling, partial curve, poor fit]

CC(C)c1nnc(NC(=O)COC(=O)/C=C/c2ccc([N+](=O)[O-])cc2)s1
cell number change: 10.6% | AC50 [1]: 1.03 µM [rising, partial curve] | AC50 [2]: 0.651 µM [rising, full curve, poor fit]

CC(C)n1nc(C(=O)Nc2cccc(S(=O)(=O)N3CCOCC3)c2)c2ccccc2c1=O
cell number change: 3.55% | AC50 [2]: 29.1 µM [falling, single point]

COc1ccc(S(=O)(=O)NCc2cccnc2)cc1C(=O)NC1CCCCC1
cell number change: -2.76%

O=C(COC(=O)CNC(=O)c1ccco1)Nc1ncc(Cl)cc1Cl
cell number change: -22.9% | AC50 [2]: 0.13 µM [falling, full curve]

Nc1c(C(=O)N2CCCCC2)sc2nc3c(cc12)CCCC3
cell number change: 34.9% | AC50 [1]: 0.0326 µM [rising, full curve, poor fit]

O=C(NCCCC1CCCC1)C1CCC(=O)N(Cc2ccc(Cl)cc2)C1 (stereo not given)
cell number change: -26.1% | AC50 [1]: 0.731 µM [falling, single point] | AC50 [2]: 8.2 µM [falling, partial curve, poor fit]

CCN(CC)C(=O)c1sc2nc(Cc3ccccc3)[nH]c(=O)c2c1C
cell number change: 12.3%

Cc1cccc(OCc2nnc(SCC(=O)c3ccccc3)o2)c1
cell number change: 4.21% | AC50 [2]: 1.84 µM [rising, full curve, poor fit]

Cc1ccc(C(C)NC(=O)c2ccc3c(c2)OCO3)cc1C (stereo not given)
cell number change: 19.9% | AC50 [2]: 29.1 µM [rising, single point]

Cc1ccc(C(=O)NCc2ccc3c(c2)OCO3)cc1Cl
cell number change: -1.59% | AC50 [2]: 29.1 µM [rising, single point]

COc1ccc(/C=N/NC(=O)c2ccc(-c3ccccc3)cc2)cc1O
cell number change: -38.9% | AC50 [1]: 25.9 µM [falling, partial curve, poor fit] | AC50 [2]: 1.03 µM [falling, full curve, poor fit]

O=C1c2ccccc2C(=O)N1CCCc1nc2ccccc2c(=O)n1Cc1ccco1
AC50 [1]: 6.51 µM [rising, single point]

N#Cc1ccccc1
cell number change: 11.4%

CCOc1ccc2oc(=O)cc(C)c2c1
AC50 [1]: 4.11 µM [rising, partial curve]

CC(Oc1ccc2c3c(c(=O)oc2c1)CCCC3)C(=O)NCc1ccccn1 (stereo not given)
cell number change: -6.78% | AC50 [2]: 29.1 µM [falling, single point]

CC(C)(C)C1CCc2onc(C(=O)Nc3cccnc3)c2C1 (stereo not given)
cell number change: -41.1% | AC50 [1]: 29.1 µM [falling, single point]

CCCSc1nnc2nc3c(nn12)c1ccccc1n3C
cell number change: 38.5% | AC50 [1]: 16.4 µM [rising, single point]

Cc1noc(C)c1C(=O)N1CCN(c2ccccc2O)CC1
cell number change: 33.5% | AC50 [1]: 8.2 µM [rising, partial curve, poor fit]

Cc1ccc(C)c(S(=O)(=O)N2CCN(CC(=O)Nc3ccc([N+](=O)[O-])cc3)CC2)c1
AC50 [1]: 0.58 µM [falling, single point]

COc1ccc2c(c1)Sc1ccccc1N2CCN(C)C
cell number change: -23.7% | AC50 [2]: 0.58 µM [falling, single point]

CCC(CO)NCC#Cc1ccccc1 (stereo not given)
cell number change: 104% | AC50 [2]: 20.6 µM [rising, single point]

COc1ccc(Nc2ccc(S(=O)(=O)N3CCCCCC3)cc2[N+](=O)[O-])cc1
cell number change: -57.3% | AC50 [1]: 18.4 µM [falling, single point] | AC50 [2]: 18.4 µM [falling, single point]

COc1ccc(/C(C)=N/NC(=O)c2sccc2-n2cccc2)cc1
cell number change: 2.85% | AC50 [2]: 0.146 µM [falling, single point]

COCCCN=CC1=C(O)CC(C)(C)CC1=O
cell number change: -10.7% | AC50 [2]: 2.91 µM [rising, single point]

Cc1[nH]n(-c2ccc(Br)cc2)c(=O)c1/C=N/NC(=O)c1ccccc1
cell number change: -41.8% | AC50 [1]: 20.6 µM [falling, single point]

COc1ccc(OC)c2[nH]c(=O)c(CCNC(=O)c3cc4ccccc4o3)cc12
AC50 [1]: 0.731 µM [rising, single point]

COC(=O)c1cccc(NC(=O)/C=C/c2ccc([N+](=O)[O-])cc2)c1
cell number change: 6.66% | AC50 [2]: 6.51 µM [rising, partial curve, poor fit]

Nc1cc(=O)[nH]c(SCC(=O)Nc2cc(Cl)cc(Cl)c2)n1
AC50 [2]: 0.116 µM [falling, full curve, poor fit]

CC(=O)c1ccc(OCCCC(=O)Nc2ccc(S(=O)(=O)N3CCOCC3)cc2)cc1
cell number change: 38.7% | AC50 [1]: 8.2 µM [rising, partial curve, poor fit]

CCOc1ccc(N2C(=O)Nc3ccccc3C2(O)C(=O)NCc2ccc3c(c2)OCO3)cc1 (stereo not given)
cell number change: 17.5% | AC50 [2]: 29.1 µM [rising, single point]

O=C1[C@H]2[C@@H](c3ccc(F)cc3)N3C(=O)N(c4cccc(Cl)c4)C(=O)[C@@]3(Cc3ccc(Cl)cc3)[C@H]2C(=O)N1C1CCCCC1
cell number change: 54.4% | AC50 [1]: 18.4 µM [rising, partial curve, poor fit]

CCN(C1CCS(=O)(=O)C1)S(=O)(=O)c1ccc(OC)c(OC)c1 (stereo not given)
cell number change: -6.7% | AC50 [2]: 20.6 µM [falling, single point]

CC(C)(O)c1nnn(-c2ccccc2)c1C(F)(F)F
cell number change: -0.625%

CCN1/C(=C/C=C/C=C/C=C/c2sc3ccccc3[n+]2CC)Sc2ccccc21
cell number change: -62.9% | AC50 [1]: 14.6 µM [falling, partial curve, poor fit] | AC50 [2]: 16.4 µM [falling, partial curve]

O=c1oc2cc(Br)ccc2n1CSC1=NCCS1
cell number change: -50.9% | AC50 [1]: 0.0259 µM [falling, full curve, poor fit]

Cc1cccn2c(=O)c(C=O)c(Sc3ncccn3)nc12
cell number change: 17.1%

COc1ccc(N(CC(=O)Nc2cccc(N(C)S(C)(=O)=O)c2)S(C)(=O)=O)cc1OC
cell number change: 15.5% | AC50 [2]: 0.411 µM [falling, partial curve]

c1cncc(-c2noc(-c3ccc4ccccc4c3)n2)c1
cell number change: 13.5%

C=CCOn1c(=O)c(-c2ccc(Br)cc2)[n+]([O-])c2ccccc21
cell number change: 34.7%

Cc1cccc(-n2nc3c(c2NC(=O)c2ccc4c(c2)OCO4)CS(=O)(=O)C3)c1C
cell number change: 4.84%

CCOC(=O)c1ccc(CNC(=O)c2n[nH]c(=O)c3ccccc23)o1
cell number change: 10.7% | AC50 [2]: 18.4 µM [rising, partial curve]

Cc1nn(CC(=O)N(C)C2CCS(=O)(=O)C2)c(C)c1S(=O)(=O)N(C)C (stereo not given)
cell number change: 8.08% | AC50 [1]: 0.58 µM [falling, single point]

COC(=O)[C@H](Cc1ccccc1)NC(=O)NCCc1ccc(S(N)(=O)=O)cc1
cell number change: -52.7% | AC50 [1]: 16.4 µM [falling, single point] | AC50 [2]: 29.1 µM [falling, single point]

COc1cc(/C=N/NC(=O)c2c(-c3ccccc3)noc2C)ccc1O
cell number change: -21.4% | AC50 [2]: 0.651 µM [rising, single point]

CCn1cc(C(=O)NCCCN2CCCC(C)C2)c(=O)c2cc(S(=O)(=O)N3CCc4ccccc4C3)ccc21 (stereo not given)
cell number change: 4.36%

C=CCSc1nccc(-c2cc(Cl)sc2Cl)n1
cell number change: 106% | AC50 [1]: 20.6 µM [rising, partial curve] | AC50 [2]: 1.64 µM [falling, partial curve]

COc1cc(S(=O)(=O)N2CCC(O)(c3cccc(C(F)(F)F)c3)CC2)ccc1-n1cnnn1
cell number change: 180% | AC50 [1]: 7.31 µM [rising, partial curve]

O=C(Nc1nnc(SCc2ccc(F)cc2)s1)C1=COCCO1
cell number change: -2.63% | AC50 [2]: 1.46 µM [falling, partial curve, poor fit]

COCCN1Cc2cccc(C(=O)NCCCN3CCCC3=O)c2C1=O
cell number change: 3.94% | AC50 [2]: 1.64 µM [falling, single point]

Cc1nnc(NC(=O)CSc2nnc(C)n2-c2ccc(F)cc2)s1
AC50 [2]: 1.84 µM [rising, single point]

CC(C)(C)NC(=O)c1ccc2c(c1)CCO2
cell number change: -47.8% | AC50 [2]: 32.6 µM [falling, partial curve, poor fit]

Cc1cc(C2CC(=O)Nc3ccccc3S2)c(C)s1 (stereo not given)
cell number change: 2.91% | AC50 [2]: 1.16 µM [rising, partial curve]

COCCC(=O)N1CCC(Oc2ccc(C(=O)N3C[C@H]4CC[C@H]3C4)cc2)CC1
cell number change: 7.66% | AC50 [1]: 6.51 µM [rising, single point]

S=C(NCCc1ccccn1)Nc1ccc(Cl)c(Cl)c1
cell number change: -10.8% | AC50 [1]: 6.51 µM [falling, single point] | AC50 [2]: 6.51 µM [falling, single point]

O=C(O)c1cccc(N2C(=O)CSC2=S)c1
cell number change: 29.6% | AC50 [2]: 16.4 µM [rising, partial curve]

CC(C)CCNC(=O)c1ccc2c(SCC(=O)O)c3c(nc2c1)CCC3
cell number change: -11.5% | AC50 [2]: 2.06 µM [falling, partial curve]

COc1ccccc1CCNC(=O)C(=O)NCCC1CCCCN1S(=O)(=O)c1cccs1 (stereo not given)
cell number change: -35.8% | AC50 [1]: 32.6 µM [falling, partial curve, poor fit] | AC50 [2]: 6.51 µM [falling, single point]
